This assay concerns the target Y14 (Drosophila) (UniProt Q9V535). Put plainly: co-purification.

Protein sequences, listed by entry. Tags and fused reporters are not part of them.
UniProt Q9V535, whole entry: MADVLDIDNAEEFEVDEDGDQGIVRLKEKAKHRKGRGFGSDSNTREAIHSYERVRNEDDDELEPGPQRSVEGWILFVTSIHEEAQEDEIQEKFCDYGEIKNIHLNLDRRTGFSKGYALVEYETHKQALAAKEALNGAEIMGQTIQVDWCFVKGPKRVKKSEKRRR
UniProt P49028, whole entry: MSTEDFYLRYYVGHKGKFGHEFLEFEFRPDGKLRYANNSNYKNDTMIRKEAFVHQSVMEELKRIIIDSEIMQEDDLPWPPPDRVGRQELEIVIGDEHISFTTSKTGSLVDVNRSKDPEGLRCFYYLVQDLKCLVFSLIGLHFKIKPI

No constants are given. Whether binding was seen depends on the method and setting. Some binding calls cover weakened binding; strength is not graded here.

With Mago (from UniProt P49028 1-147), the binding result is given as “binds”.

For the origin of these results see doi:10.1101/2024.12.18.629124.
